# The list shows a part of the results.
# Target: T1, OsSMF1 (Oryza sativa, UniProt Q6ZLB0 1-436)
# T1 sequence: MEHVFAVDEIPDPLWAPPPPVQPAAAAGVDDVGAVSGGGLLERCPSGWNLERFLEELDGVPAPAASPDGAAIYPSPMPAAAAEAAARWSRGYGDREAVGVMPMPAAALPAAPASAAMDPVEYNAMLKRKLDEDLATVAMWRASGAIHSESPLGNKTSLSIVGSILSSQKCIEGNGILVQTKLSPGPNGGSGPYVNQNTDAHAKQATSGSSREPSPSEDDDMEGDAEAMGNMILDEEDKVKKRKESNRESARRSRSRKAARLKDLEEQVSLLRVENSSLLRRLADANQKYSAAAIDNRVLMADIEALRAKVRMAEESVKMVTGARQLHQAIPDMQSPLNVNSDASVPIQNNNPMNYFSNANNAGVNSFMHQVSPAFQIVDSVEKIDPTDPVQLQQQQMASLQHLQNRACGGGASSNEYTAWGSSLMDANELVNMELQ
# Assay: protein-binding microarray (RPBM); PBS, 2% BSA, 51.3 ng/ul salmon testes DNA, 50 uM zinc acetate, 200 nM TF, 25 C, 1 h; high values mean tight binding
# Details: protein: recombinant; tags: N-terminal polyhistidine and DsRed monomer fusion (pET32a); chain copies: 2; label: CyDye5-dUTP incorporated in the synthesized complementary strand; 3' TTTTT single-stranded linker to array surface; dsDNA, one strand shown
# Summary of the method: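 Ni–NTA purification followed expression in E. coli BL21-CodonPlus of transcription factors fused N-terminally to a polyhistidine tag and DsRed. At 200 nM in PBS with 2% BSA, salmon testes DNA and 50 µM zinc acetate, the protein was incubated for 1 h at 25 °C with a custom Agilent array that had been primer-extended with Cy5-dUTP and blocked with 2% BSA. After washing, the array was read on an Axon 4000B scanner. The binding signal is per-feature fluorescence intensity in arbitrary units.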
row,Sequence,binding signal
1,AGTATGCTTTTCAAACCGCTAAATGGTACATTTCATGCAACGGAGTCACCTAGTGCAG,4720 fluorescence intensity (a.u.)
2,GCATGCACAGTTGATTTTCTTTGATTGATTTGTTTGCACTCGGAGTCACCTAGTGCAG,12900 fluorescence intensity (a.u.)
3,GTGGTACGGTACACATCTTGCGTGCGTCACACCTTATCCACGGAGTCACCTAGTGCAG,6120 fluorescence intensity (a.u.)
4,AACGGAACACATGTTGTTGTAGTACGTCATTGAGATTGAGCGGAGTCACCTAGTGCAG,5920 fluorescence intensity (a.u.)
5,TGCTATAGGGGCTGGGGTGGCAGGCAGCGCACGGATCTGCCGGAGTCACCTAGTGCAG,3340 fluorescence intensity (a.u.)
6,CCCACGATAAAATTTTCATGATACAGTTATCCTGTCACGACGGAGTCACCTAGTGCAG,4000 fluorescence intensity (a.u.)
7,TCCATAAACGTTTTATCACATGTGCATCTATTTTGCCATGCGGAGTCACCTAGTGCAG,3390 fluorescence intensity (a.u.)
8,ATCCCTTTGCCTAGTCAGGCTTCAACTCGATAGTCTTCTCCGGAGTCACCTAGTGCAG,4900 fluorescence intensity (a.u.)
9,GGGTAGGGTGTACGTGTGTGCGTTTATAGGGGTGAGTGTGCGGAGTCACCTAGTGCAG,3640 fluorescence intensity (a.u.)
10,TACATAGCCTCAAATTATGTGACACGGTGCCAATGTGCCACGGAGTCACCTAGTGCAG,5620 fluorescence intensity (a.u.)
11,AAGTGGCTTCAGATCAGCGTAGTAGTTGTAAGGGTATCCTCGGAGTCACCTAGTGCAG,3710 fluorescence intensity (a.u.)
12,TACAACTGTACAAAATTACGCCGTATCTTTCCCTTGTCTGCGGAGTCACCTAGTGCAG,3300 fluorescence intensity (a.u.)
13,CTCCCTTTTGATGAGTAGGATGATCCACTCGACTCTAAGCCGGAGTCACCTAGTGCAG,3810 fluorescence intensity (a.u.)
14,GTCGCCGCCAATGGCCTCCTGACAAGGCCTCGTCTCGGTTCGGAGTCACCTAGTGCAG,3540 fluorescence intensity (a.u.)
15,GCCTCCACCTCGCTGCTGCTCCGCCAGCTAGTAGCCGCCACGGAGTCACCTAGTGCAG,3350 fluorescence intensity (a.u.)
16,GCTAGGGTGTGACATCCTTGCCCAGGGCTTAATAGGATTACGGAGTCACCTAGTGCAG,3610 fluorescence intensity (a.u.)
17,CATCCATCCCGCGAGCGAGCAGGGCGCCGTCGTTCGTCCTCGGAGTCACCTAGTGCAG,3590 fluorescence intensity (a.u.)
18,GCGTGGTCCCACCTGCCATACCTACCCCGGCGAGGCGAGTCGGAGTCACCTAGTGCAG,3390 fluorescence intensity (a.u.)
19,CTTAATAACTTTCTCGGATTTAATGTGTGACTCACCATTCCGGAGTCACCTAGTGCAG,13700 fluorescence intensity (a.u.)
20,TTAATGACATATAGGACCCACATGAGTCAATGATGTGTGGCGGAGTCACCTAGTGCAG,3530 fluorescence intensity (a.u.)
21,TGCTGTCACTGATCACTGGTGACTGCATCTAACTCTACTACGGAGTCACCTAGTGCAG,3530 fluorescence intensity (a.u.)
22,GATGGGTTGCGACCCAGGGCAAGTCTGGTACGTGTGCACGCGGAGTCACCTAGTGCAG,3570 fluorescence intensity (a.u.)
23,ATCTCGCCCTCTCTGGACCATCACACCTACCCTGAAATCCCGGAGTCACCTAGTGCAG,3140 fluorescence intensity (a.u.)

# Taken from above:
# Entry for GCTAGGGTGTGACATCCTTGCCCAGGGCTTAATAGGATTACGGAGTCACCTAGTGCAG under binding signal: 3610 fluorescence intensity (a.u.)
# Entry for AAGTGGCTTCAGATCAGCGTAGTAGTTGTAAGGGTATCCTCGGAGTCACCTAGTGCAG under binding signal: 3710 fluorescence intensity (a.u.)
